{"source": "PubChem BioAssay", "note": "Inconclusive results, whose numbers are uncertain, are shown with a selection of clear calls. A potency beside an inconclusive call is a rough fit, not a confirmed value. Calls of active or inactive are those of the source. The limit is not given here; nearly all actives have AC50 up to about 26 µM.", "data": [{"experiment": "growth inhibition of DIPG glioma cells, dose response, cell-based, SU-DIPG-XVII, MIPE5.0, CellTiter-Glo, qHTS (AID 1347060);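 as to AC50: cells exposed to compound for 48 hours before viability readout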", "details": "SU-DIPG-XVII viability, CellTiter-Glo ATP luminescence", "values": [{"smiles": "Cc1c(NC(=O)c2cc3c(s2)CCCC3)cccc1-c1cn(C)c(=O)c(Nc2ccc(C3C(=O)N(C)CCN3C)cc2)n1", "note": "(stereo not given)", "AC50": "active: 23.5 µM"}, {"smiles": "COc1ccc(Cl)c(Nc2nc3ccccc3nc2NS(=O)(=O)c2cccc(NC(=O)C(C)(C)N)c2)c1", "AC50": "active: 14.8 µM"}, {"smiles": "CCC(CC)C(c1ccc(Nc2nc3ccccc3s2)cc1)n1cncn1", "note": "(stereo not given)", "AC50": "inconclusive: 20.9 µM [cytotoxic]"}, {"smiles": "Cc1cc(C(=O)Nc2cc(Oc3ccc4nc(NC(=O)C5CC5)cn4n3)ccc2C)n(C)n1", "AC50": "inconclusive: 10.5 µM [cytotoxic]"}, {"smiles": "CN(C)CCCOc1ccc(-c2ccc3ncc4c(c3c2)n(C2CCOCC2)c(=O)n4C)cn1", "AC50": "inconclusive: 4.56 µM [cytotoxic]"}, {"smiles": "CCS(=O)(=O)Nc1ccc(Oc2ccc(F)cc2F)c(-c2cn(C)c(=O)c3[nH]ccc23)c1", "AC50": "inconclusive: 7.42 µM [cytotoxic]"}, {"smiles": "CC(=NNC(=O)c1cccc(S(=O)(=O)N2CCOCC2)c1)c1cc(Cl)ccc1O", "AC50": "active: 8.33 µM"}, {"smiles": "C[C@@H]1C[C@H](N)C[C@H](c2ccncc2NC(=O)c2ccc(F)c(-c3c(F)cccc3F)n2)C1", "AC50": "inconclusive: 37.2 µM [cytotoxic]"}, {"smiles": "CC(C)NC(=O)COc1cccc(-c2nc(Nc3ccc4[nH]ncc4c3)c3ccccc3n2)c1", "AC50": "inconclusive: 3.72 µM [cytotoxic]"}, {"smiles": "O=C(c1ccc(Nc2nc(C3CC3)cn3c(-c4cn[nH]c4)cnc23)c(F)c1)N1CCOCC1", "AC50": "active: 5.25 µM"}, {"smiles": "C=CC(=O)N[C@H]1CN(c2nc(Nc3cn(C)nc3OC)c3ncn(C)c3n2)C[C@@H]1F", "AC50": "active: 18.6 µM"}, {"smiles": "CCN(CC)C(=O)Cc1csc(NS(=O)(=O)c2cccc(Cl)c2C)n1", "outcome": "inactive"}, {"smiles": "C[C@H]1COCCN1c1cc(C2(S(=O)(=O)C3CC3)CC2)nc(-c2ccc(NC(=S)NCCO)cc2)n1", "AC50": "active: 0.295 µM"}, {"smiles": "COc1ccc2[nH]c(C(=O)N3CCC(CC(C)(C)O)CC3)cc2c1", "outcome": "inactive"}, {"smiles": "CN1CCN(C2CCC(n3cc(-c4ccc(Oc5ccccc5)cc4)c4c(N)ncnc43)CC2)CC1", "note": "(stereo not given)", "AC50": "active: 1.48 µM"}, {"smiles": "Cc1cc(O[C@@H](CCC(F)(F)F)c2ccc(C(=O)NCCC(=O)O)cc2)cc(C)c1-c1ccc(C(C)(C)C)cc1", "AC50": "inconclusive: 14.8 µM [cytotoxic]"}, {"smiles": "COc1cc(C(=O)O)ccc1NC(=O)[C@@H]1N[C@@H](CC(C)(C)C)[C@](C#N)(c2ccc(Cl)cc2F)[C@H]1c1cccc(Cl)c1F", "AC50": "active: 6.61 µM"}, {"smiles": "COc1ncc(Nc2ncc([C@H](C)N3CCN(S(C)(=O)=O)CC3)cc2-c2nc(C)nc(N)n2)cc1F", "AC50": "inconclusive: 0.59 µM [cytotoxic]"}, {"smiles": "NC(=O)c1cnc2[nH]ccc2c1NC1C2CC3C[C@H]1CC(O)(C3)C2", "note": "(stereo not given in full)", "AC50": "inconclusive: 4.68 µM [cytotoxic]"}, {"smiles": "NCCCC[C@H](NC(=O)[C@@H](NC(=O)[C@H](Cc1c[nH]c2ccccc12)NC(=O)[C@H](CCCCN)NC(=O)[C@H](CCCCN)NC(=O)[C@H](Cc1c[nH]c2ccccc12)NC(=O)[C@H](Cc1c[nH]c2ccccc12)NC(=O)[C@H](CCCCN)NC(=O)[C@@H](N)CCCCN)C(c1ccccc1)c1ccccc1)C(N)=O", "AC50": "inconclusive: 20.9 µM [cytotoxic]"}, {"smiles": "CN(C)CCNC(=O)NC[C@H]1CC[C@@H]2[C@H](O1)c1cc(C(F)(F)F)ccc1N[C@H]2c1ccccc1", "AC50": "inconclusive: 0.468 µM [cytotoxic]"}, {"smiles": "Cc1ccc(C(=O)Nc2ccc(Oc3cc4cnn(C)c4cc3-c3cn[nH]c3)c(F)c2)c(=O)n1-c1ccc(F)cc1", "AC50": "inconclusive: 3.72 µM [cytotoxic]"}, {"smiles": "O=C(c1c(F)ccc(NS(=O)(=O)N2CC[C@@H](F)C2)c1F)c1c[nH]c2ncc(-c3cnc(C4CC4)nc3)cc12", "AC50": "inconclusive: 14.8 µM [cytotoxic]"}, {"smiles": "Cc1ccc(Nc2nnc(Cc3ccncc3)c3ccccc23)cc1Br", "AC50": "inconclusive: 14.8 µM [cytotoxic]"}, {"smiles": "Nc1nc(OC(c2ccc(-c3cccc(F)c3)cc2)C(F)(F)F)cc(-c2ccc(C[C@@H](N)C(=O)O)cc2)n1", "note": "(stereo not given in full)", "AC50": "inconclusive: 16.6 µM [cytotoxic]"}, {"smiles": "Cc1ccc(Nc2ncc3c(n2)N(C)C(=O)N(c2cc(NC(=O)c4cccc(C(F)(F)F)c4)ccc2C)C3)cn1", "AC50": "active: 0.105 µM"}, {"smiles": "CC(C)[C@](O)(c1ccc2cc(OC(F)F)c(OC(F)F)cc2c1)c1cn[nH]n1", "outcome": "inactive"}, {"smiles": "Cc1ccc(-c2nn(C(C)(C)CNC(=O)c3ccncc3)c3ncnc(N)c23)cc1", "AC50": "active: 10.5 µM"}, {"smiles": "NC(=O)c1cccc2c(NC(CN3CCC3)c3ccc(Cl)c(C(F)(F)F)c3)ncnc12", "note": "(stereo not given)", "AC50": "active: 11.8 µM"}, {"smiles": "O=c1c(-n2ccnn2)c[nH]n1-c1cc(N2CCOCC2)ncn1", "AC50": "inconclusive: 20.9 µM [cytotoxic]"}, {"smiles": "c1cc(Nc2cc(C3CC3)[nH]n2)nc(Nc2ccc3nc[nH]c3c2)n1", "AC50": "inconclusive: 0.132 µM [cytotoxic]"}, {"smiles": "N#Cc1ccc(Cn2cncc2CN2CCN(c3cccc(Cl)c3)C(=O)C2)cc1", "AC50": "inconclusive: 4.17 µM [cytotoxic]"}, {"smiles": "Nc1nccn2c(C3CCC(C(=O)O)CC3)nc(-c3cc4cccc(Cl)c4[nH]3)c12", "note": "(stereo not given)", "AC50": "active: 4.17 µM"}, {"smiles": "CNCc1ccc(-c2cc(-c3nc(-c4ccc(S(=O)(=O)C(C)C)cc4)cnc3N)on2)cc1", "AC50": "inconclusive: 0.105 µM [cytotoxic]"}, {"smiles": "O=C(NNc1ccccc1)c1ccncc1", "AC50": "inconclusive: 18.6 µM [cytotoxic]"}, {"smiles": "Cc1ccc(S(=O)(=O)Cc2nc(-c3ccc(C(=O)NCc4cccnc4)cc3)oc2C)cc1", "AC50": "active: 0.0525 µM"}, {"smiles": "C[C@H](NC(=O)c1c(N)nn2cccnc12)c1cc2cccc(C#Cc3cnn(C)c3)c2c(=O)n1-c1ccccc1", "AC50": "inconclusive: 7.23 µM [cytotoxic]"}, {"smiles": "CN1CCN(C(=O)c2ccc3cc(CCNc4ncnc5ccc(C#N)cc45)ccc3c2)CC1", "AC50": "inconclusive: 26.3 µM [cytotoxic]"}, {"smiles": "Cn1nccc1Nc1nccc(-c2cc3c(s2)C(C)(C)N(CCN2CCOCC2)C3=O)n1", "AC50": "active: 5.25 µM"}, {"smiles": "CC(C)[C@@H](CS(=O)(=O)C(C)C)N1C(=O)[C@@](C)(CC(=O)O)C[C@H](c2cccc(Cl)c2)[C@H]1c1ccc(Cl)cc1", "AC50": "inconclusive: 37.2 µM [cytotoxic]"}]}]}
